Experimental data reported in PubChem BioAssay AID597 (National Center for Advancing Translational Sciences (NCATS), 2007).
“And” between values parts separate entries of the source, which are not always exact repeats. Equal entries are not always repeated. The campaign covered roughly 68,000 compounds. About 60 (0.09%) were called active. Inconclusive means that the source gave no clear call. Such entries were picked first, then a sample of the others. The call rests on the fitted dose curve; in most records, active means well fitted curve in the direction sought with a large enough effect; inconclusive means small, poorly fitted or top-dose-only effect; inactive means flat fitted curve, though single readings scatter. Potencies beside an inconclusive call are fits to weak or partial responses and may not hold up. More than one record can exist for a structure, and the calls need not agree.

assay: qHTS Assay for Epigenetic Modulators; settings: mouse C127i GFP locus derepression, cytometry, 30 h; GFP derepression (activation): at the top concentration; on GFP derepression (activation): % of control where 0% means no effect
Excerpt: NIH Molecular Libraries Screening Centers Network [MLSCN] NIH Chemical Genomics Center [NCGC] MLSCN Grant: 1 X01 MH079860-01 Assay Provider: Elisabeth D. Martinez, University of Texas SW Medical Center NCGC Assay Overview: The Locus Derepression assay detects the derepression of a GFP reporter that is stably integrated in a region of the genome of murine c127i mammary cells that is presumably silenced. GFP transcription in this construct is controlled by a CMV promoter, which normally is strong and constitutively active. However, this line was selected for lack of constitutive expression of the GFP protein. GFP production can be induced by incubating the cells with histone deacetylase or DNA methyltransferase inhibitors. Compounds that cause derepression of the locus to express GFP are identified by enumerating GFP positive cells using a laser-scanning microplate cytometer. For further details of this screen and follow-up characterization, see R.L. Johnson, W. Huang, A. Jadhav, C.P. Austin, J. Inglese, E.D. Martinez, A Quantitative High-Throughput Screen Identifies Potential Epigenetic Modulators of Gene Expression, Analytical Biochemistry (2008) 375(2):237-48.
NCGC Assay Protocol Summary: Two hundred and fifty cells in 5 uL per well were dispensed into black, clear-bottom 1536-well plates. Twenty-three nL compound was transferred to the assay plate and cells were incubated 30 hours at 37 C. Medium was removed, cells were washed two times with PBS, and GFP-positive cells were enumerated as fluorescent objects between the sizes of 20 to 120 um width and depth using an Acumen Explorer. Keywords: NIH Roadmap, MLSCN, MLI, MLSMR, qHTS, NCGC, qHTS, HDAC, DNMT, HAT, DNA methyltransferases, histone acetyl transferases, histone deacetylases

Row | SMILES | GFP derepression (activation) | Potency
1 | COc1cc(CCN)ccc1O | inactive: -2.2% [at 46.1 µM] | –
2 | Cc1c2ccncc2c(C)c2c1[nH]c1ccccc12 | – | inconclusive: 5.01 µM [single point] and active: 12.6 µM
3 | COC(=O)CC1(Cc2ccccc2)C(=O)NC(=O)NC1=O | – | inconclusive: 5.01 µM [single point]
4 | O=[As](O)(O)c1ccc(Cc2ccc([As](=O)(O)O)cc2)cc1 | – | inconclusive: 1.26 µM [single point]
5 | CO[C@@H](C)[C@](O)(C(=O)OC1=CCN2CC[C@H](O)[C@H]12)C(C)C | inactive: -4.7% | –
6 | C[C@@]12Cc3cnc(-c4ccccc4)nc3C[C@@H]1CC[C@@H]1[C@H]3CC[C@@](C)(O)[C@]3(C)CC[C@@H]12 | inactive: 0% | –
7 | NCC#Cc1ccccc1 | – | inconclusive: 31.6 µM [single point]
8 | COc1cc2[nH]c(=O)n(-c3ccccc3)c(=O)c2cc1OC | – | inconclusive: 25.1 µM [single point]
9 | Nc1ccccc1O.O.O=C(O)[C@H]1[O][Sb][O][C@H]1C(=O)O | – | inconclusive: 3.16 µM [single point]
10 | CCOC(=O)c1c(C)n(COCCO)c2ccc(O)cc12 | – | inconclusive: 31.6 µM [single point]
11 | O=C(O)[C@@H]1[C@H](C(=O)O)[C@]2(Cl)C(Cl)=C(Cl)[C@@]1(Cl)C2(Cl)Cl | – | active: 3.16 µM
12 | Cc1nn(Cc2ccccc2)c(C)c1C(=O)OCC(=O)Nc1ccccc1SCC#N | – | inconclusive: 31.6 µM [single point]
13 | C[n+]1c(/C=C\c2ccc(O)c3ncccc23)[se]c2ccccc21 | – | inconclusive: 5.01 µM [single point]
14 | Cc1ccc2cccc(OC(=O)N3CCCC3)c2n1 | inactive: 0% [at 46.1 µM] | –
15 | Cc1cc2c(C(F)(F)F)cc(=O)oc2c2c1NCCC2 | – | inconclusive: 31.6 µM [single point]
16 | CN1CSC(=S)N(C)C1 | – | active: 6.31 µM
17 | CN[C@H]1[C@H]2[C@H]3CCN2C[C@@H]1O3 | inactive: -4.7% | –

Molecules from the list above with an NH in an aromatic ring:
Row | SMILES | GFP derepression (activation) | Potency
2 | Cc1c2ccncc2c(C)c2c1[nH]c1ccccc12 | – | inconclusive: 5.01 µM [single point] and active: 12.6 µM
8 | COc1cc2[nH]c(=O)n(-c3ccccc3)c(=O)c2cc1OC | – | inconclusive: 25.1 µM [single point]
